Results deposited as PubChem BioAssay AID504764 (Drosophila RNAi Screening Center, 2011)

Purpose: 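Genes whose knock-down alters Notch-dependent transcription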 (primary screen)
System: Drosophila Kc167 cells
Knock-down reagent: long dsRNA against Drosophila genes
Timing: about 5 days (4 days dsRNA, then 24 h after transfection)
Conditions: transfection of constitutively active membrane-tethered Notch lacking the extracellular domain, read 24 h later
Detection: 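Firefly luciferase from an E(spl)m3 reporter with active Notch, plus control-promoter and uninduced reporter wells for normalisation; unnormalised counts, duplicate wells a and b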
Reading the numbers: induced reporter light, run 1, well a and induced reporter light, run 1, well b: higher = more light from the Notch target reporter with active Notch; control promoter light, run 1, well a and control promoter light, run 1, well b: higher = more light from the viral control promoter (cell number, transfection, viability); uninduced reporter light, run 1, well a: higher = more light from the Notch target reporter without active Notch
Call rule: 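Hit if the duplicate-averaged log2 ratio of induced to control-promoter light gives a plate-wise z beyond ±2, or induced to uninduced beyond ±1.8; weak-control or discordant-duplicate wells dropped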
Calls: active = modifier hit (raised or lowered Notch signal); inactive = not a hit
The screen tested about 22,000 reagents; below is a random part of those with a known target gene and a result. Over the whole deposit, 403 (1.9%) are marked active. 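Unnormalised raw counts per well; ratio z-scores behind the hit calls and whether each hit raises or lowers signal are not deposited.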 Unmarked entries are inactive. The numbers tell different reagents against one gene apart. Names joined by + are all predicted targets of the reagent. The record does not give: the amount of reagent.

predicted target	reagent no.	induced reporter light, run 1, well a	induced reporter light, run 1, well b	control promoter light, run 1, well a	control promoter light, run 1, well b	uninduced reporter light, run 1, well a
Sprn	1	1.91e5	1.51e5	2.31e5	1.55e5	7255
PDCD-5	1	2.73e5	1.90e5	2.70e5	2.32e5	13350
Tpl94D	1	1.01e5	75725	1.18e5	89115	11720
CG10931	1	96410	84440	88105	75575	6340
CG14435	1	86025	92400	1.11e5	1.25e5	8725
CG44838	1	4635	3920	4950	2610	2860
CG44838	2	79575	1.15e5	62820	29640	8990
pll	1	2.06e5	2.01e5	2.35e5	2.15e5	12195
CG40551 (retired record)	1	75250	64930	84410	82565	5340

Ordered by “control promoter light, run 1, well b” (highest first): some entries from above.
predicted target	reagent no.	induced reporter light, run 1, well a	induced reporter light, run 1, well b	control promoter light, run 1, well a	control promoter light, run 1, well b	uninduced reporter light, run 1, well a
CG44838	2	79575	1.15e5	62820	29640	8990
CG44838	1	4635	3920	4950	2610	2860

Additional reagents follow:
predicted target	reagent no.	induced reporter light, run 1, well a	induced reporter light, run 1, well b	control promoter light, run 1, well a	control promoter light, run 1, well b	uninduced reporter light, run 1, well a
CG6951	1	51680	50405	55625	50295	4455
scramb1	1	1.60e5	75190	1.48e5	88680	8190
scramb1	2	96480	1.06e5	84780	80365	5885
scramb1	3	2.21e5	1.33e5	2.63e5	1.59e5	9920
sw + Sdic4 + Sdic3 + 2 more	1	1.07e5	98765	1.19e5	1.39e5	11030
p115	1	1.55e5	1.72e5	3.02e5	3.03e5	9575
Ak6	1	97690	92160	1.28e5	1.56e5	9910
CG11912	1	1.72e5	1.94e5	2.05e5	2.30e5	17455
CG4281	1	1.66e5	1.62e5	2.34e5	2.47e5	13165
CG10750	1	1.59e5	1.58e5	1.87e5	1.57e5	15325
dpr5	1	71100	85395	72530	52330	4785
